We go through 2 compounds from PMC7180767, “Influence of Selected Antidepressants on the Ciliated Protozoan Spirostomum ambiguum: Toxicity, Bioaccumulation, and Biotransformation Products” (Molecules, 2020).

One experiment concerns Spirostomum ambiguum. Nature of the experiment: microbe, parasite or virus in culture.
A further experiment deals with Daphnia magna. Conditions: cited from earlier work.

Each structure is given as a SMILES string. In brackets after ≈: the same amount, converted by molar mass.

As a reminder, the EC50 is the midpoint of the concentration-response curve. Take `CNCCC(Oc1ccc(C(F)(F)F)cc1)c1ccccc1` (stereo not shown) [Fluoxetine, fluoxetine]: the EC50 with Spirostomum ambiguum (24 h, 1 d, pH = 6.0) came to 4.75 ± 0.23 µg/mL (≈ 15.4 µM); in the experiment on Spirostomum ambiguum (24 h, 1 d, pH = 6.5), 2.32 ± 0.24 µg/mL (≈ 7.5 µM); with Spirostomum ambiguum (24 h, 1 d, pH = 7.4) it was 1.68 ± 0.19 µg/mL (≈ 5.43 µM); in the experiment on Spirostomum ambiguum (48 h, 2 d, pH = 6.0), 2.88 ± 0.38 µg/mL (≈ 9.31 µM); in the experiment on Spirostomum ambiguum (48 h, 2 d, pH = 6.5) it was 1.49 ± 0.14 µg/mL (≈ 4.82 µM); in the experiment with Spirostomum ambiguum (48 h, 2 d, pH = 7.4), 1.39 ± 0.13 µg/mL (≈ 4.49 µM). For the same compound, the EC50 in the experiment on Spirostomum ambiguum (168 h, 7 d, pH = 6.0) was 1.94 ± 0.53 µg/mL (≈ 6.27 µM); in the experiment with Spirostomum ambiguum (168 h, 7 d, pH = 6.5), 0.96 ± 0.16 µg/mL (≈ 3.1 µM); in the experiment on Spirostomum ambiguum (168 h, 7 d, pH = 7.4), 1.05 ± 0.22 µg/mL (≈ 3.39 µM).
With `CN1CCN2c3ccccc3Cc3ccccc3C2C1` (stereo not shown) [Mianserin, mianserin], in the experiment on Daphnia magna, the “48-h EC50” value was 7.81 µg/mL.
